{
  "source": "patent US20140255358A1",
  "about": "“GENERATION OF IMMUNOSUPPRESSIVE MYELOID CELLS USING PGE2” (priority 2011, published 2014)",
  "system": "myeloid suppressive cells",
  "experiment": "Induction of immunosuppressive factor mRNA by PGE2 and EP agonists (FIG. 3)",
  "assay_type": "cell-based, human",
  "from_the_text": "FIG. 3. PGE2, EP4 and EP2 agonists mediate enhanced development of MDSCs. […] All data were confirmed in 3-7 independent experiments. Bar graphs present data of a single representative experiment with different donors as mean±s.d.",
  "note": "For at least one compound, name, drawing or mass did not settle the structure.",
  "data": [
    {"smiles": "CS(=O)(=O)NC(=O)CCC/C=C\\C[C@H]1C(=O)C[C@@H](O)[C@@H]1/C=C/[C@@H](O)COc1ccccc1", "note": "[Sulprostone]", "values": [
      {"measurement": "induction of immunosuppressive factors arginase, IDO1, NOS2, IL-4Rα, IL10 and COX2 mRNA", "value": "but not"}
    ]}
  ]
}
